At least one structure is not confirmed: it was looked up by name or label, or the drawing left a doubt.
Tested on: mAB/LPS-induced arthritic mice
Assay: mAb/LPS-induced arthritis in mice, hind paw thickness
Format: in vivo
Conditions: comparison with vehicle control (corn oil)
Text: Collagen-induced arthritis (CIA) in mice is widely used as an experimental model for rheumatoid arthritis (RA) in humans. CIA is mediated by autoantibodies which bind to a particular region of type II collagen, such as CB11 (CNBr-digested fragment of type II collagen).
Antibody-mediated CIA can be induced by iv injection of a combination of 4 different monoclonal antibodies (Arthrogen-CIA® mAb) generated by Arthrogen-CIA® mouse B-hybridoma cell lines.
Three of the mAbs recognize autoantigenic epitopes clustered within an 84 amino acid residue fragment, LyC2 (the smallest arthritogenic fragment of type II collagen) of CB11 and the fourth mAb reacts with LyC1 (FIG. 1). Importantly, all 4 mAbs recognize the conserved epitopes shared by various species of type II collagen and crossreact with homologous and heterologous type II collagen.
A cocktail of 4 monoclonal antibodies are used. […]
(A) A cocktail of 4 monoclonal antibodies to type II collagen (2 mg) is injected intravenously on day 0 followed by an intraperitoneal injection of LPS (50 μg) on day 3. […] The therapeutic effects of test compounds will be determined on day 7. […]
Measurement of arthritis. Hind paw thickness, left and right of each animal (9 animals in each group) was measured in mm on study days 0 (base-line), 7, 9 and 11 using a Mitutoyo Electronic Digital Caliper. […]

C[C@@H]1C[C@H]2[C@@H]3CCC4=CC(=O)C=C[C@]4(C)[C@@]3(F)[C@@H](O)C[C@]2(C)[C@@]1(O)C(=O)CO [Dexamethasone, reference compound]
Hind paw thickness vs vehicle control (corn oil): highly significant lower
